According to patent publication US20250320250A1, “PHARMACEUTICAL COMPOSITIONS FOR THE TREATMENT OF VISCERAL PAIN” (Ironwood Pharmaceuticals, Inc., priority 2021, published 2025):
The name of at least one read-out is uncertain.

Experiment: Informal stability of rectal foam prototypes, analytical results (% recovery)
Assay type: physicochemical
Details: Prototype A Placebo Lot 1797-1109R02; T6 25° C.; Location Middle

## CCCOC(=O)c1ccc(O)cc1 [Propylparaben]
  % Recovery: 103.'2%
